Test results from patent US20100183617A1.
Results are given in words; binding and its absence hold for the method and conditions named. Some entries that bind do so weakly or less than the wild type. Tags and fused reporters may be left off the sequences shown.

Legend:
[1] = molecular target: N-terminal SAS1R protein (121 residues) fused to the GAL4 DNA-binding domain (pGBKT7), yeast two-hybrid (mouse); test: yeast two-hybrid
[2] = molecular target: C-terminal 210 residue SAS1R protein fused to the GAL4 DNA-binding domain (pGBKT7), yeast two-hybrid (mouse); test: yeast two-hybrid
[3] = molecular target: full-length mouse SAS1R (414 residues, without signal sequence) fused to the GAL4 DNA-binding domain (pGBKT7), yeast two-hybrid (mouse); test: yeast two-hybrid, high stringency plate
[4] = molecular target: N-terminal SAS1R protein (121 residues) fused to the GAL4 DNA-binding domain (pGBKT7), yeast two-hybrid (mouse); test: yeast two-hybrid, high stringency plate
[5] = molecular target: C-terminal 210 residue SAS1R protein fused to the GAL4 DNA-binding domain (pGBKT7), yeast two-hybrid (mouse); test: yeast two-hybrid, high stringency plate
[6] = molecular target: full-length mouse SAS1R (414 residues, without signal sequence) fused to the GAL4 DNA-binding domain (pGBKT7), yeast two-hybrid (mouse); test: yeast two-hybrid, high stringency plates
[7] = molecular target: N-terminal SAS1R protein (121 residues) fused to the GAL4 DNA-binding domain (pGBKT7), yeast two-hybrid (mouse); test: yeast two-hybrid, high stringency plates
[8] = molecular target: C-terminal 210 residue SAS1R protein fused to the GAL4 DNA-binding domain (pGBKT7), yeast two-hybrid (mouse); test: yeast two-hybrid, high stringency plates
[9] = molecular target: N-terminal SAS1R protein (121 residues) fused to the GAL4 DNA-binding domain (pGBKT7), yeast two-hybrid (mouse); test: yeast two-hybrid, plates examined after three days
[10] = molecular target: C-terminal 210 residue SAS1R protein fused to the GAL4 DNA-binding domain (pGBKT7), yeast two-hybrid (mouse); test: yeast two-hybrid, plates examined after three days
[11] = molecular target: T1, purified recombinant mouse egg-specific TolA protein (MET), His-tagged fusion expressed in E. coli (mouse) (UniProt Q9CWU5); test: far-western: 7 µg recombinant MET blotted, overlaid with recombinant SLLP1 2 µg/ml
T1 sequence: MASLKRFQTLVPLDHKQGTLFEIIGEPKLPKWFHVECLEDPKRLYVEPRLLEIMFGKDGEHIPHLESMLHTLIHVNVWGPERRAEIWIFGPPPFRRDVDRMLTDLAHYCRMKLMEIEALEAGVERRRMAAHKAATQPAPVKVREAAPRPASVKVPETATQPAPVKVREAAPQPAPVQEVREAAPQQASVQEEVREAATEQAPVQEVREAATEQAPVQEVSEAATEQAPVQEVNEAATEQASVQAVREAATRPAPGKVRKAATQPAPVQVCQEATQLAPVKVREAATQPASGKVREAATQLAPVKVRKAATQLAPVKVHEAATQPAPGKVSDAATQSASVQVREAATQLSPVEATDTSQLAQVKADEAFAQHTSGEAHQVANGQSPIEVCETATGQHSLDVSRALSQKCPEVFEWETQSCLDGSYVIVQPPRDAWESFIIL

Measured: binding

B1: mature mSLLP1 protein (C-terminal 128 residues) fused to the GAL4 activation domain (pGADT7), yeast two-hybrid (protein, not shown: large carriers)
chain: KVFSRCELAKEMHDFGLDGYRGYNLADWVCLAYYTSGFNTNAVDHEADGSTNNGIFQISSRRWCRTLASNGPNLCRIYCTDLLNNDLKDSIVCAMKIVQEPLGLGYWEAWRHHCQGRDLSDWVDGCDF
not listed: [11]
binds: all other assays above

B2: purified soluble recombinant mouse SLLP1 (mature form, residues 94-221), His-tagged, expressed in E. coli (ligand, not shown: small tags and cut ends)
chain: KVFSRCELAKEMHDFGLDGYRGYNLADWVCLAYYTSGFNTNAVDHEADGSTNNGIFQISSRRWCRTLASNGPNLCRIYCTDLLNNDLKDSIVCAMKIVQEPLGLGYWEAWRHHCQGRDLSDWVDGCDF
binds: [11]
